Measurements from publication PMC5996148.
This is one part of the list.

How the values were obtained:
Test in all cases: protein microarray (ProtoArray v5.0), streptavidin-Alexa Fluor 647
Conditions in all cases: 3'-biotin; 20 mM Tris (pH 7.5), 5 mM MgCl2, 100 mM KCl, 0.1% Tween-20, A/T-rich and random oligonucleotide blockers; temperature not stated; high values mean tight binding
TK1 (human) = system: TK1 (human)
TLE3 (human) = system: TLE3 (human)
TMEM103 (human) = system: TMEM103 (human)
TMEM129 (human) = system: TMEM129 (human)
TMEM138 (human) = system: TMEM138 (human)
TMEM149 (human) = system: TMEM149 (human)
TMEM159 (human) = system: TMEM159 (human)
TMEM17 (human) = system: TMEM17 (human)
TMEM182 (human) = system: TMEM182 (human)
TMEM185A (human) = system: TMEM185A (human)

Sequence: GGTGACAGGGGTATGGGGAGGGG [G4-2 biotinylated (Ct1)]
- binding signal (TK1 (human)): -0.389 z-score
- binding signal (TLE3 (human)): -0.386 z-score
- binding signal (TMEM103 (human)): -0.386 z-score
- binding signal (TMEM129 (human)): -0.379 z-score
- binding signal (TMEM138 (human)): -0.39 z-score
- binding signal (TMEM149 (human)): -0.379 z-score
- binding signal (TMEM159 (human)): -0.388 z-score
- binding signal (TMEM17 (human)): -0.378 z-score
- binding signal (TMEM182 (human)): -0.372 z-score
- binding signal (TMEM185A (human)): -0.384 z-score
